# Data source: PubChem BioAssay AID1259424 (University of Nebraska Medical Center, 2018)
# Purpose: 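Rank knockdowns across the genome by resemblance to the KSR1 depletion profile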 (primary screen)
# Cells: human HCT116 colon cancer cells
# Reagents: siRNA pool against human genes, 50 nM
# Read-out: 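Log2 levels of six mRNAs (branched-DNA multiplex), adjusted by two reference genes and the non-targeting median, then scored against the average KSR1 knockdown pattern as Pearson r and euclidean distance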
# Direction: mean correlation with KSR1 profile and KSR1 correlation: higher = expression change more like KSR1 knockdown; mean distance from KSR1 profile: higher = expression change less like KSR1 knockdown
# The deposit covers about 14,000 reagents; below is an unselected part. 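Higher correlation or smaller distance means closer resemblance to KSR1 loss; control wells, including KSR1 knockdowns, recur on many plates.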 The record does not give: the time to read-out.
target gene,mean correlation with KSR1 profile,mean distance from KSR1 profile,"KSR1 correlation, replicate 1","KSR1 correlation, replicate 2","KSR1 correlation, replicate 3"
ULK2,-0.234,2.31,0.272,-0.211,-0.559
PELP1,0.441,0.976,0.305,0.311,0.342
MLXIPL,0.267,2.39,0.448,-0.134,0.387
TMEM258,-0.718,2.97,-0.452,-0.672,-0.714
GABRP,-0.465,2.66,-0.269,-0.558,-0.608
POLR2I,-0.349,2.64,-0.205,-0.0427,-0.433
APBB3,-0.305,2.36,0.3,-0.576,-0.128
MAPK4,-0.178,2.8,-0.1,-0.228,-0.178
CNTNAP1,0.0244,1.3,0.227,0.0868,-0.191
EXOSC7,0.63,0.679,0.727,0.537,0.575
SLC17A5,-0.233,1.55,-0.409,-0.449,-0.0221
KDM3A,-0.211,3.52,-0.445,-0.212,-0.279
FGF16,0.158,1.07,-0.23,0.307,0.356
DEFB1,-0.42,3.22,-0.398,-0.46,-0.592
AOPEP,0.203,2.79,0.393,0.57,0.0274
RRM1,0.347,3.1,0.451,0.263,0.306
PGAM1,-0.425,1.54,-0.238,-0.48,-0.36
S100G,0.0673,1.53,-0.0934,0.14,-0.0453
ARHGEF9,-0.596,2.3,-0.668,-0.528,-0.336
L1CAM,0.325,2.09,0.417,0.416,0.318

Laid out differently: 2 of the entries above.
target gene	mean correlation with KSR1 profile	mean distance from KSR1 profile	KSR1 correlation, replicate 1	KSR1 correlation, replicate 2	KSR1 correlation, replicate 3
DEFB1	-0.42	3.22	-0.398	-0.46	-0.592
AOPEP	0.203	2.79	0.393	0.57	0.0274
